Measurements reported in PubChem BioAssay AID686943 (Drosophila RNAi Screening Center, 2013).

Screen: 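Fly genes whose loss alters ERK activation after insulin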 (primary screen)
System: Drosophila S2R+ haemocyte-like cells expressing YFP-tagged ERK (Rolled)
Reagent: long dsRNA against Drosophila genes
Treatment: insulin stimulation versus unstimulated cells; dose and duration not given
Detection: 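Antibody staining for doubly phosphorylated ERK divided by ERK-YFP signal, as plate z-scores, in insulin-treated and untreated cells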
Scale: replicate 1, z-score of dpERK with insulin: higher = more active ERK per ERK-YFP after insulin
In all, the deposit lists about 23,000 reagents; shown is an unselected part of those with a known target gene and a result. 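Extra replicates exist only for a retested subset of genes; insulin dose and duration not given; both raised and lowered dpERK matter.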 A plus sign joins genes that one reagent is predicted to hit. Not all columns of the deposit are shown. The record does not give: the amount of reagent, the time to read-out.

replicate 1, z-score of dpERK with insulin, by gene and reagent
Vlet (Valette): DRSC19845 1.22
AttA (Attacin-A): DRSC05926 -0.27
CG44433: DRSC06517 0.61; DRSC06518 0.21
Npc2g (Niemann-Pick type C-2g): DRSC14296 0.69
CG14285: DRSC14766 -0.01
CG3703: DRSC18172 0.26; DRSC18173 0.63; DRSC18643 -0.24
CG11791: DRSC14391 0.15
CG14883: DRSC15007 -0.06
CG30259: DRSC04164 -0.85; DRSC04165 -0.03
CG46491: DRSC06565 0.84; DRSC06566 0.5
Ugt317A1 (UDP-glycosyltransferase family 317 member A1): DRSC04470 1.13
Herc4 (HECT and RLD domain containing E3 ubiquitin ligase 4): DRSC08631 -0.08
CG10211: DRSC02027 -1.75
qless: DRSC15103 -0.39; DRSC15507 -0.61
CG14929 + CG14930: DRSC02412 -0.04
CG31954: DRSC00580 0.37
MICAL-like: DRSC09829 0.12
CG43098: DRSC08051 0.33
achi (achintya): DRSC07276 0.91
CG3437: DRSC10366 0.26
Muc12Ea (Mucin 12Ea): DRSC19937 0.57
Trpgamma (Transient receptor potential cation channel gamma): DRSC03626 0.8
Uros1 (Uroporphyrinogen III synthase 1): DRSC18191 0.66
CG2839: DRSC00544 0.71
dsb (debris buster): DRSC08407 -2.07; DRSC08542 0.3
CG11155: DRSC17184 -0.05; DRSC17205 -0.27
CG30075: DRSC05484 0.38
Ttd14 (TRPL translocation defect 14): DRSC06632 -0.26; DRSC06942 1.28
Idh (Isocitrate dehydrogenase): DRSC10779 -0.21
Rab3GAP1 (RAB3 GTPase activating protein subunit 1): DRSC00291 0.46; DRSC00703 0.07
TotE (Turandot E): DRSC21355 -0.43
CG15025: DRSC15031 -0.47
rdx (roadkill): DRSC14526 -1.45; DRSC16580 -0.26
CG43068: DRSC05538 -1.04
prc (pericardin): DRSC11385 0.81
Usp16-45 (Ubiquitin specific protease 16/45): DRSC18352 -0.14
CG10041: DRSC14179 -0.21
Mur18B (Mucin related 18B): DRSC20063 -0.15
CG11263: DRSC09832 0.28
CG33170: DRSC11854 0.84; DRSC22366 0
CG18735: DRSC04312 -0.33
CG13893: DRSC08363 -0.5
CG31827 + CG18478: DRSC01958 0.29
Sac1 (Sac1 phosphatase): DRSC08622 -0.68
dpr8 (defective proboscis extension response 8): DRSC19406 1.06; DRSC19600 0.62; DRSC19938 0.11; DRSC19939 -0.4
CG42553: DRSC08356 0.25
CG34006 (retired record): DRSC13817 -0.68
sog (short gastrulation): DRSC20379 0.22
metro (menage a trois): DRSC06341 0.57; DRSC06725 -0.63
Gnpnat (Glucosamine-phosphate N-acetyltransferase): DRSC15405 -0.02
MFS1 (Major Facilitator Superfamily Transporter 1): DRSC04115 0.35
ATP6 (retired record): DRSC21278 0.52
Elo68alpha (Elongase 68alpha): DRSC22725 -0.05
asRNA:CR31084 (antisense RNA:CR31084): DRSC21649 0.29
Cog8 (Component of oligomeric golgi complex 8): DRSC02961 1.1
CG18343: DRSC06726 0.04
dec (defective chorion): DRSC18759 1.8; DRSC21477 0.36

In a second layout: results already given.
{"gene":"CG10211","dsRNA":"DRSC02027","replicate 1, z-score of dpERK with insulin":-1.75}
{"gene":"qless","dsRNA":"DRSC15103","replicate 1, z-score of dpERK with insulin":-0.39}
{"gene":"qless","dsRNA":"DRSC15507","replicate 1, z-score of dpERK with insulin":-0.61}
{"gene":"CG14929 + CG14930","dsRNA":"DRSC02412","replicate 1, z-score of dpERK with insulin":-0.04}
{"gene":"CG31954","dsRNA":"DRSC00580","replicate 1, z-score of dpERK with insulin":0.37}
{"gene":"MICAL-like","dsRNA":"DRSC09829","replicate 1, z-score of dpERK with insulin":0.12}
